Results deposited as PubChem BioAssay AID1259405 (NCATS, 2018).
Purpose: 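Knock-downs that lift recombinant protein yield in hamster ovary cells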 (primary screen). System: Chinese hamster CHO-K1 ovary cells with stable secreted eGFP expression. Reagents: single siRNA against mouse genes, 0.8 pmol siRNA per well (2 µl of 400 nM stock). Time to read-out: 3 days. Measured: 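Percent of the per-plate non-targeting control median for intracellular GFP per well by laser scanning cytometry and for cell viability by ATP luminescence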. Scale: GFP, % of control: higher = more GFP per well, higher productivity; viability (ATP), % of control: higher = more viable cells (more ATP). Call rule: 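a knock-down is called active if GFP reaches 120% or more of non-targeting control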.
Shown is an unselected part of about 50,000 deposited reagents. About 4,000 of all reagents (8%) count as active. 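Mouse siRNA library applied to hamster cells; one well for each siRNA.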 Unmarked entries are inactive. Reagents against one gene are numbered here.

Ino80b #1 showed GFP, % of control 62; viability (ATP), % of control 72.3.
Depletion of Ino80b #2 came out at: GFP, % of control 4.14; viability (ATP), % of control 2.47.
Ino80b #3 showed GFP, % of control 144 (active); viability (ATP), % of control 124.
After knock-down of Tmem69 #1, the screen gave GFP, % of control 128 (active); viability (ATP), % of control 96.8.
Tmem69 #2 showed GFP, % of control 33.1; viability (ATP), % of control 18.2.
Tmem69 #3 showed GFP, % of control 84.6; viability (ATP), % of control 95.2.
For H60a #1 the deposit lists GFP, % of control 72; viability (ATP), % of control 51.8.
After knock-down of H60a #2, the screen gave GFP, % of control 48.9; viability (ATP), % of control 49.
H60a #3 showed GFP, % of control 58.9; viability (ATP), % of control 69.1.
Ppp1r14d #1 gave GFP, % of control 90.7; viability (ATP), % of control 90.7.
Ppp1r14d #2 scored GFP, % of control 166 (active); viability (ATP), % of control 75.7.
After knock-down of Ppp1r14d #3 the results were GFP, % of control 85; viability (ATP), % of control 88.8.

Called active (from the list above):
Ino80b #3 | GFP, % of control = 144 (active); viability (ATP), % of control = 124
Tmem69 #1 | GFP, % of control = 128 (active); viability (ATP), % of control = 96.8
Ppp1r14d #2 | GFP, % of control = 166 (active); viability (ATP), % of control = 75.7

The results go on:
Against Npl #1, the values are GFP, % of control 87; viability (ATP), % of control 90.6.
Silencing of Npl #2 gave: GFP, % of control 118; viability (ATP), % of control 101.
Knock-down of Npl #3 gave: GFP, % of control 70.9; viability (ATP), % of control 59.6.
Ppih #1 showed GFP, % of control 95.5; viability (ATP), % of control 92.6.
Depletion of Ppih #2 came out at: GFP, % of control 92.3; viability (ATP), % of control 71.1.
Ppih #3 showed GFP, % of control 85.2; viability (ATP), % of control 66.4.
Depletion of Rwdd2b #1 came out at: GFP, % of control 43; viability (ATP), % of control 64.7.
After knock-down of Rwdd2b #2 the results were GFP, % of control 75.6; viability (ATP), % of control 77.3.
For Rwdd2b #3, the entry reads GFP, % of control 58; viability (ATP), % of control 65.8.
Silencing of Slc27a2 #1 gave: GFP, % of control 147 (active); viability (ATP), % of control 60.9.
With knock-down of Slc27a2 #2, the record shows GFP, % of control 76.8; viability (ATP), % of control 80.4.
Knock-down of Slc27a2 #3 gave: GFP, % of control 112; viability (ATP), % of control 111.
Crip3 #1 gave GFP, % of control 85.9; viability (ATP), % of control 107.
With knock-down of Crip3 #2, the screen gave GFP, % of control 99.7; viability (ATP), % of control 92.
Silencing of Cyp4x1 #1 came out at: GFP, % of control 98.7; viability (ATP), % of control 83.9.
For Cyp4x1 #2, the entry reads GFP, % of control 83.6; viability (ATP), % of control 96.7.
Depletion of Cyp4x1 #3 came out at: GFP, % of control 78.9; viability (ATP), % of control 101.
